The source of these data is the supplement of paper PMC10849652.

Protein sequences, listed by entry. Tags and fused reporters are not part of them. Lines headed by an entry give the natural chain unless they say otherwise; changes in a name come on top.
UniProt Q96LT7: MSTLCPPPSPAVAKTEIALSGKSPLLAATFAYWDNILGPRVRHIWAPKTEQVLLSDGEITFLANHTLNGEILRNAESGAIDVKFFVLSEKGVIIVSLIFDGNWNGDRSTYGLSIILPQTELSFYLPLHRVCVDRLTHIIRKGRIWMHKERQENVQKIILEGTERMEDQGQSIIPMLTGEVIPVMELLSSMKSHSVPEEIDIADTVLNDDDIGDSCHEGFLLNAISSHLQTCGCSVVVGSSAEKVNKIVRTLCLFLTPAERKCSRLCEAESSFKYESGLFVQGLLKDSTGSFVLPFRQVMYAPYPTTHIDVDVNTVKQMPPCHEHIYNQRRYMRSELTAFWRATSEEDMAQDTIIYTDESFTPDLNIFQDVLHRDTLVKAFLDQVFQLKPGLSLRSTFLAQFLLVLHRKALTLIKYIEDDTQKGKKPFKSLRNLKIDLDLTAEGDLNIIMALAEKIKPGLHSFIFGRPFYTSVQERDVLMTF
UniProt P00915: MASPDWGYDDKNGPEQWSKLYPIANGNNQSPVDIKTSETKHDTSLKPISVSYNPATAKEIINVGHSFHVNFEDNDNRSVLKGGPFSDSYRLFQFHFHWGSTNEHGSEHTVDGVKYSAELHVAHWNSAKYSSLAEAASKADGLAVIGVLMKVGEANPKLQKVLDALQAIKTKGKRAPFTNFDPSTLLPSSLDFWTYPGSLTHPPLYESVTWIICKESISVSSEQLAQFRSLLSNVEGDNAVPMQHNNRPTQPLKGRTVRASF
UniProt Q9NSG2: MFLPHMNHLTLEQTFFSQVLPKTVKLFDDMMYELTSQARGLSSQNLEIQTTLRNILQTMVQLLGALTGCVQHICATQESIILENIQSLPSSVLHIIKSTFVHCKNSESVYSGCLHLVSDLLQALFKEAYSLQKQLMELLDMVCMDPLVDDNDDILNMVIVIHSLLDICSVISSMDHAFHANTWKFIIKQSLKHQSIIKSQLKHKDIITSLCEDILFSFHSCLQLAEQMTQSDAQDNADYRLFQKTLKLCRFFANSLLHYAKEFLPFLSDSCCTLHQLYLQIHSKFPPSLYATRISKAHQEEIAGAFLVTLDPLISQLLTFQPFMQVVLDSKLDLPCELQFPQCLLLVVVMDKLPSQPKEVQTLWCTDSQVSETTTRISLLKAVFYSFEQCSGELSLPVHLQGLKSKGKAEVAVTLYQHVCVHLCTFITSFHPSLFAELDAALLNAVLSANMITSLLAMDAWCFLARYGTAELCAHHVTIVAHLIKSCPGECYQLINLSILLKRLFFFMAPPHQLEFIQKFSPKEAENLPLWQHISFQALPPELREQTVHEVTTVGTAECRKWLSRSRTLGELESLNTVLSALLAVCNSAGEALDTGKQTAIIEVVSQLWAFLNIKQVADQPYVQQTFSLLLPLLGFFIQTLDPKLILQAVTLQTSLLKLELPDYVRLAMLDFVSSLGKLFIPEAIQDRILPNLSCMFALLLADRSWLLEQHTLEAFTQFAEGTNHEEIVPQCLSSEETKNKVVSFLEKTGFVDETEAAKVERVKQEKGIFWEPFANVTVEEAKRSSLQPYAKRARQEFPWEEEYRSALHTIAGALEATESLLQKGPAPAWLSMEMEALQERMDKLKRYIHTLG
UniProt Q7Z6I8: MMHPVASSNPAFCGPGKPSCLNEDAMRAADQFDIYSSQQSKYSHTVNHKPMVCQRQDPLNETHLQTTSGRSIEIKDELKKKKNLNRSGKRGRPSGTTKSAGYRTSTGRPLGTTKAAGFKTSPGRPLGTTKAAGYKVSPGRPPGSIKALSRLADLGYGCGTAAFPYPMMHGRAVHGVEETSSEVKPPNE
UniProt Q96LW7: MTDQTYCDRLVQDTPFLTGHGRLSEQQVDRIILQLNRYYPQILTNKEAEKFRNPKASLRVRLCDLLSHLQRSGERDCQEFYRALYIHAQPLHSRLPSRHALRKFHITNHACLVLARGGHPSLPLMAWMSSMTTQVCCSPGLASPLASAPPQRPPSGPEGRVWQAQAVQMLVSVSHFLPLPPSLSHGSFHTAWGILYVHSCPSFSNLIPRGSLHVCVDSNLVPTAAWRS
UniProt P04003: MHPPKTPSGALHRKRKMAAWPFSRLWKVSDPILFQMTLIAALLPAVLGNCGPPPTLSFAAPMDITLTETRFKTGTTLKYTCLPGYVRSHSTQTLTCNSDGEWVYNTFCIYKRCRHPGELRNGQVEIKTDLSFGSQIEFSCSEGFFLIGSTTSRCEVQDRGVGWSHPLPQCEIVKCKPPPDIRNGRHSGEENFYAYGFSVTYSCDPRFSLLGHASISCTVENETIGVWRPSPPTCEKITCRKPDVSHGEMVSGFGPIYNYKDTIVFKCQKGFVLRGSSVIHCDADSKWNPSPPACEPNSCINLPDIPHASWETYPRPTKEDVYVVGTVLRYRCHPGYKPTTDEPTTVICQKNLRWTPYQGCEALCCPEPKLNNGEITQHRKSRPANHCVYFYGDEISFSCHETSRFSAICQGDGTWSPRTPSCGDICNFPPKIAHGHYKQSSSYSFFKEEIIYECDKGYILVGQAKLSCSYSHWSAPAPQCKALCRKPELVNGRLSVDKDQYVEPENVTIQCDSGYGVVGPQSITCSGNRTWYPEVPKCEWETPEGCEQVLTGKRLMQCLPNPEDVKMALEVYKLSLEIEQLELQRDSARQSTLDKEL
UniProt Q96RR4, whole entry, looked up: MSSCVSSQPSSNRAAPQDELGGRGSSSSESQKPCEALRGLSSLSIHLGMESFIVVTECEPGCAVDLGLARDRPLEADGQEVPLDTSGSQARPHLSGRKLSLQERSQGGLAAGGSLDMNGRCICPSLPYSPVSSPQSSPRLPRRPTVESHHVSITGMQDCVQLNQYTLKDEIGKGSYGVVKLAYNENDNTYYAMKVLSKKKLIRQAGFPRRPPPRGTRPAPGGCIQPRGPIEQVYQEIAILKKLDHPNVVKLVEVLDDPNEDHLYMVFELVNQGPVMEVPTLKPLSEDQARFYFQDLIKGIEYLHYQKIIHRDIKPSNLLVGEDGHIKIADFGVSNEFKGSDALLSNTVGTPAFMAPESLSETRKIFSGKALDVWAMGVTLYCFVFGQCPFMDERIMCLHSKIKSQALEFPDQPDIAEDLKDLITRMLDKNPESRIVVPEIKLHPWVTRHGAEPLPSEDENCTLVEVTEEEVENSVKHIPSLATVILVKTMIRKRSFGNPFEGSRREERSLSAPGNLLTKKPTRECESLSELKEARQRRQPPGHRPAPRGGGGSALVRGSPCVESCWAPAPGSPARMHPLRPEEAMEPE
UniProt Q86VG3: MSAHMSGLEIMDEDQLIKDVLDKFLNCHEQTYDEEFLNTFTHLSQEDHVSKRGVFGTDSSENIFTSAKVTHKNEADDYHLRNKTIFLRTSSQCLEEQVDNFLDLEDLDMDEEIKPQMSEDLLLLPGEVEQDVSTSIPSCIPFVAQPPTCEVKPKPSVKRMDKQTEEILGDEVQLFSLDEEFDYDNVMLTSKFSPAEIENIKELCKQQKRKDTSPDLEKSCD
UniProt O75808: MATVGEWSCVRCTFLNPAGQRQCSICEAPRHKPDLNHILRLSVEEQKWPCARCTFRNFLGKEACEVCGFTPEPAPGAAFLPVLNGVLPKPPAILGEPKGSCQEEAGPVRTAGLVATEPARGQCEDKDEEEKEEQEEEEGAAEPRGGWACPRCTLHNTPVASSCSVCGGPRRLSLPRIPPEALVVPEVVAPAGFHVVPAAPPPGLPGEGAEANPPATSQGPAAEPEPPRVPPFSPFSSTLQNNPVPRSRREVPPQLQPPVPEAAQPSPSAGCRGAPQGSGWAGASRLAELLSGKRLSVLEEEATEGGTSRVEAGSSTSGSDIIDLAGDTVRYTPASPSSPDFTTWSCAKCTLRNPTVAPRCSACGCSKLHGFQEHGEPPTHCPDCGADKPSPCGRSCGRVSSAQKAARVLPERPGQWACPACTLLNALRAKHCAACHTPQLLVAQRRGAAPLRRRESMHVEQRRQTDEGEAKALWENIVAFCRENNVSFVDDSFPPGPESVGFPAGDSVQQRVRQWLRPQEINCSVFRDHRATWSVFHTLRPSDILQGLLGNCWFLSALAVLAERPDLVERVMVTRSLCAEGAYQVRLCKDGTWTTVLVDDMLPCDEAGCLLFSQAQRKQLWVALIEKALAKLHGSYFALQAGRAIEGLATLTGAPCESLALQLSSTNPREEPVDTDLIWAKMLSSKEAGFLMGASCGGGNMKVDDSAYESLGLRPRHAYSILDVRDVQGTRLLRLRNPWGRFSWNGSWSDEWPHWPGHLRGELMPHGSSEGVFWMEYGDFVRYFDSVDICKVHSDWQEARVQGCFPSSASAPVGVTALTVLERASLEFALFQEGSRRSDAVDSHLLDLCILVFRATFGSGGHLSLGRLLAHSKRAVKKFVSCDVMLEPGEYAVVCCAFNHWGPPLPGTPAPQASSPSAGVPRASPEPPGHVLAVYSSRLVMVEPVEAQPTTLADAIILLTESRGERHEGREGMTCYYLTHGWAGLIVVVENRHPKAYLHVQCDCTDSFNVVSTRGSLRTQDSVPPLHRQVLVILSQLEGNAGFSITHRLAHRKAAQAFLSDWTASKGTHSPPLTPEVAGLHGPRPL
UniProt Q5BKX5: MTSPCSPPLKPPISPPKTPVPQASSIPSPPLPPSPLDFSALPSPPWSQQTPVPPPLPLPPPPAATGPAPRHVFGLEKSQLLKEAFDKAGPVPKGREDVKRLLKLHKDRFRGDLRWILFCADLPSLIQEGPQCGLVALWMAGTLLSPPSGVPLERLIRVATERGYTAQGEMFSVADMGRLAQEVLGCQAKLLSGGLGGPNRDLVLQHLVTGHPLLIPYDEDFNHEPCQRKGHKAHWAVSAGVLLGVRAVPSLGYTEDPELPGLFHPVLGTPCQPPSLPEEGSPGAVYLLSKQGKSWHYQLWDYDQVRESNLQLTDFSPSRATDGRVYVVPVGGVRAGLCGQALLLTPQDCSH
UniProt Q9H9S4: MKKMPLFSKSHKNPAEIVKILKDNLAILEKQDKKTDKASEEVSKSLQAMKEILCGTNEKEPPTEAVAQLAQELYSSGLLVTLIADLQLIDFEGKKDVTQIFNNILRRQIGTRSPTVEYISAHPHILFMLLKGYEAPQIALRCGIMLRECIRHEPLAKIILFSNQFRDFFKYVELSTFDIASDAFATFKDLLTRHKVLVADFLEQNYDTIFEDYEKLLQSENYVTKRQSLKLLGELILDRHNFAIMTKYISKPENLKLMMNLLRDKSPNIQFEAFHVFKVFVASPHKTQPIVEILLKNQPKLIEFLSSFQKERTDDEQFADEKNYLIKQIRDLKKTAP
UniProt Q9BRD0: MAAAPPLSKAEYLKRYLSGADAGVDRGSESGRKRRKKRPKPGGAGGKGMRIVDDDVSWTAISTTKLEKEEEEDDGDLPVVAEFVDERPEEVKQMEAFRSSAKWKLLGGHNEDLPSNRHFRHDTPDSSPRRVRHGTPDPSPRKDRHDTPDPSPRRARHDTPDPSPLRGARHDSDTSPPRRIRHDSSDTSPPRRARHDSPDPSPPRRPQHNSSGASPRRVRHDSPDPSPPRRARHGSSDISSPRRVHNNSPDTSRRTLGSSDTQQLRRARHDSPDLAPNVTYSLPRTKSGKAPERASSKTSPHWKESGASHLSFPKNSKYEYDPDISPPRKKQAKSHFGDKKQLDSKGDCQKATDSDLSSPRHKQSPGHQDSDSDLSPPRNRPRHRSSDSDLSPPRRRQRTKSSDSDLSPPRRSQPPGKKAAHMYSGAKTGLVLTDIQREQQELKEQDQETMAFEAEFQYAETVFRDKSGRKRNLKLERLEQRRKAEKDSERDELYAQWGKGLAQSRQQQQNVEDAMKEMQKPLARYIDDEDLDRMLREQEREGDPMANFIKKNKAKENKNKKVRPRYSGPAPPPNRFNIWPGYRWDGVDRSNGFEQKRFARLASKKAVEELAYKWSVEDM
UniProt Q13901: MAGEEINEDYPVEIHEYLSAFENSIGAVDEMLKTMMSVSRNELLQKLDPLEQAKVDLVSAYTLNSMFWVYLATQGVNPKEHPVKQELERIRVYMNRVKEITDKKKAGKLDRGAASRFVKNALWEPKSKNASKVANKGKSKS
UniProt P0DMB2: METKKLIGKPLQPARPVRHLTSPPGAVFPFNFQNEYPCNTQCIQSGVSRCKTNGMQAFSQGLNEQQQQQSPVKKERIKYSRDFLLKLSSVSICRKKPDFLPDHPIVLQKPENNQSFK
UniProt Q9Y2V0: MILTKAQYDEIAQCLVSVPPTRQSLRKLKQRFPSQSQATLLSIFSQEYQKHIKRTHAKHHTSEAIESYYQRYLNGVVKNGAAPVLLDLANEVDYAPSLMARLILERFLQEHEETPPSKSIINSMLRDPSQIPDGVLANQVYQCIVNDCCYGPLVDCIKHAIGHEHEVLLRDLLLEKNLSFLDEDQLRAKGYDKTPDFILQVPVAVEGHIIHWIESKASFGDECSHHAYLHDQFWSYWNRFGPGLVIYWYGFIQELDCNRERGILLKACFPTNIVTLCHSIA

The list shows a part of the results.

Compound in the assay: CN1CCC(CNc2ccc3ncc(-c4cccc(OC(F)(F)F)c4)n3n2)CC1
Description: log2 fold change, soluble protein after heating vs DMSO (PISA); higher = thermal stabilisation; K562 cells, 10 uM, 30 min; active = over 0.2 and 3.5 SD of the protein, either way, in both replicates (recomputed). The method, boiled down: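 K562 cells at 2×10^6 cells/mL were given 10 μM compound for 30 min. Aliquots then went through 3 min of heating across 48°C-58°C, were pooled, and were extracted in PBS with 0.5% NP-40 at 4°C, and the supernatant after 21,000xg for 90 min was quantified by TMTpro 16plex LC-MS/MS with channel sums equalised. Thermal stability relative to control samples, from duplicates, is given as log2 fold change.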
Take C9orf72 (UniProt Q96LT7): the log2 fold change was inactive: 0.209.

For CA1 (UniProt P00915), the log2 fold change was inactive: 0.134.

On to C1orf112 (UniProt Q9NSG2), for which the log2 fold change was inactive: -0.002.

Take C5orf24 (UniProt Q7Z6I8): the log2 fold change was inactive: -0.035.

For CARD19 isoform 2 (UniProt Q96LW7), the log2 fold change was inactive: -0.078.

In the case of C4BPA (UniProt P04003), the log2 fold change is inactive: 0.049.

For the target CAMKK2 (UniProt Q96RR4), the log2 fold change is inactive: 0.045.

Regarding C11orf74 (UniProt Q86VG3), the log2 fold change was inactive: -0.014.

As to BTRC (UniProt Q9Y297), the log2 fold change is inactive: 0.048.

For the target CAPN15 (UniProt O75808), the log2 fold change was inactive: 0.178.

As for C19orf54 (UniProt Q5BKX5), the log2 fold change was inactive: -0.141.

Take CAB39L (UniProt Q9H9S4): the log2 fold change is inactive: 0.072.

With BUD13 (UniProt Q9BRD0), the log2 fold change is inactive: 0.016.

C1D (UniProt Q13901): the log2 fold change was inactive: 0.096.

For C8orf88 (UniProt P0DMB2), the log2 fold change is inactive: -0.176.

In the case of C15orf41 (UniProt Q9Y2V0), the log2 fold change was inactive: 0.001.
